Data taken from the supplement of paper PMC7661543.
± gives the standard deviation of the averaged measurements. The effect of the compound repeats well; differences between the knockouts mostly do not.

System: HCC-38
Assay: relative cell number vs DMSO control (72 h) (% of DMSO); higher = less growth inhibition (more cells)
Procedure: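 QMAP-Seq: a pool of 5 breast cancer cell lines (ZR-75-1, SKBR3, HCC-38, MDA-MB-231, BT-20), each carrying 12 doxycycline-inducible Cas9 sgRNA perturbations (11 knockouts plus non-targeting sgNT), was treated with compounds for 72 h at four 10-fold doses (10 nM-10 uM or 1 nM-1 uM range). Barcodes were amplified and sequenced, and cell number was interpolated from 293T spike-in standard curves. The result is expressed as % of the median of DMSO wells. Two biological replicates.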

CN1C(=O)C(Cc2c[nH]c3ccccc23)NC1=S (configuration not stated) [Necrostatin1]
Conditions	relative cell number
sgRNA knockout: sgATF3, 10 nM	115 ± 8.2
sgRNA knockout: sgATF3, 100 nM	99.6 ± 8.2
sgRNA knockout: sgATF3, 1000 nM	99.5 ± 5.9
sgRNA knockout: sgATF3, 10000 nM	99 ± 1.4
sgRNA knockout: sgATF4, 10 nM	98.9 ± 2.8
sgRNA knockout: sgATF4, 100 nM	103 ± 2.5
sgRNA knockout: sgATF4, 1000 nM	102 ± 14
sgRNA knockout: sgATF4, 10000 nM	94.3 ± 8.4
sgRNA knockout: sgATF6, 10 nM	118 ± 17
sgRNA knockout: sgATF6, 100 nM	94.3 ± 11
sgRNA knockout: sgATF6, 1000 nM	87.7 ± 5.6
sgRNA knockout: sgATF6, 10000 nM	81.6 ± 3.5
sgRNA knockout: sgATG7, 10 nM	105 ± 1.5
sgRNA knockout: sgATG7, 100 nM	95 ± 9.1
sgRNA knockout: sgATG7, 1000 nM	100 ± 9.3
sgRNA knockout: sgATG7, 10000 nM	97.1 ± 3.4
sgRNA knockout: sgERN1, 10 nM	106.4 ± 0.84
sgRNA knockout: sgERN1, 100 nM	102 ± 6.3
sgRNA knockout: sgERN1, 1000 nM	89.8 ± 4.2
sgRNA knockout: sgERN1, 10000 nM	95.3 ± 17
sgRNA knockout: sgHSF1, 10 nM	81.5 ± 1.7
sgRNA knockout: sgHSF1, 100 nM	90.9 ± 9.4
sgRNA knockout: sgHSF1, 1000 nM	91.3 ± 6.9
sgRNA knockout: sgHSF1, 10000 nM	74 ± 3.2
sgRNA knockout: sgHSF2, 10 nM	113 ± 7.9
sgRNA knockout: sgHSF2, 100 nM	99.1 ± 2.6
sgRNA knockout: sgHSF2, 1000 nM	91.5 ± 5.7
sgRNA knockout: sgHSF2, 10000 nM	87.9 ± 9.9
sgRNA knockout: sgKEAP1, 10 nM	109 ± 6.4
sgRNA knockout: sgKEAP1, 100 nM	99.4 ± 8
sgRNA knockout: sgKEAP1, 1000 nM	88.3 ± 3.5
sgRNA knockout: sgKEAP1, 10000 nM	83.3 ± 23
sgRNA knockout: sgNFE2L2, 10 nM	108 ± 9.5
sgRNA knockout: sgNFE2L2, 100 nM	92.4 ± 1.1
sgRNA knockout: sgNFE2L2, 1000 nM	94.8 ± 14
sgRNA knockout: sgNFE2L2, 10000 nM	91.7 ± 4.5
sgRNA knockout: sgSLC35F2, 10 nM	102 ± 7.5
sgRNA knockout: sgSLC35F2, 100 nM	92.4 ± 1.9
sgRNA knockout: sgSLC35F2, 1000 nM	103 ± 10
sgRNA knockout: sgSLC35F2, 10000 nM	104 ± 14
sgRNA knockout: sgXBP1, 10 nM	109 ± 3.5
sgRNA knockout: sgXBP1, 100 nM	93.7 ± 1.5
sgRNA knockout: sgXBP1, 1000 nM	101 ± 2.8
sgRNA knockout: sgXBP1, 10000 nM	106 ± 6.8

COc1cccc2cc(-c3nc([C@H]4CC[C@H](C(=O)O)CC4)n4ncnc(N)c34)[nH]c12 [OSI027]
Conditions	relative cell number
sgRNA knockout: sgATF3, 10 nM	109 ± 16
sgRNA knockout: sgATF3, 100 nM	105 ± 21
sgRNA knockout: sgATF3, 1000 nM	82.7 ± 8.3
sgRNA knockout: sgATF3, 10000 nM	32.9 ± 1.4
sgRNA knockout: sgATF4, 10 nM	106 ± 27
sgRNA knockout: sgATF4, 100 nM	108 ± 37
sgRNA knockout: sgATF4, 1000 nM	81 ± 6
sgRNA knockout: sgATF4, 10000 nM	36.1 ± 3.6
sgRNA knockout: sgATF6, 10 nM	107 ± 13
sgRNA knockout: sgATF6, 100 nM	111 ± 16
sgRNA knockout: sgATF6, 1000 nM	92.4 ± 8.8
sgRNA knockout: sgATF6, 10000 nM	28.97 ± 0.04
sgRNA knockout: sgATG7, 10 nM	115 ± 25
sgRNA knockout: sgATG7, 100 nM	93.5 ± 12
sgRNA knockout: sgATG7, 1000 nM	79.4 ± 6.8
sgRNA knockout: sgATG7, 10000 nM	36.1 ± 1.7
sgRNA knockout: sgERN1, 10 nM	103 ± 13
sgRNA knockout: sgERN1, 100 nM	100 ± 9.7
sgRNA knockout: sgERN1, 1000 nM	87.9 ± 1.7
sgRNA knockout: sgERN1, 10000 nM	35.8 ± 2.3
sgRNA knockout: sgHSF1, 10 nM	96.2 ± 16
sgRNA knockout: sgHSF1, 100 nM	105 ± 11
sgRNA knockout: sgHSF1, 1000 nM	84 ± 9.5
sgRNA knockout: sgHSF1, 10000 nM	36.2 ± 0.5
sgRNA knockout: sgHSF2, 10 nM	106 ± 13
sgRNA knockout: sgHSF2, 100 nM	119 ± 9
sgRNA knockout: sgHSF2, 1000 nM	90.6 ± 5
sgRNA knockout: sgHSF2, 10000 nM	32 ± 3.2
sgRNA knockout: sgKEAP1, 10 nM	106 ± 33
sgRNA knockout: sgKEAP1, 100 nM	125 ± 8.7
sgRNA knockout: sgKEAP1, 1000 nM	79 ± 6.3
sgRNA knockout: sgKEAP1, 10000 nM	35.8 ± 0.72
sgRNA knockout: sgNFE2L2, 10 nM	104 ± 35
sgRNA knockout: sgNFE2L2, 100 nM	95.6 ± 24
sgRNA knockout: sgNFE2L2, 1000 nM	82 ± 4
sgRNA knockout: sgNFE2L2, 10000 nM	32.9 ± 6.2
sgRNA knockout: sgSLC35F2, 10 nM	103 ± 20
sgRNA knockout: sgSLC35F2, 100 nM	108 ± 19
sgRNA knockout: sgSLC35F2, 1000 nM	89.4 ± 6.8
sgRNA knockout: sgSLC35F2, 10000 nM	32.1 ± 1.5
sgRNA knockout: sgXBP1, 10 nM	120 ± 38
sgRNA knockout: sgXBP1, 100 nM	110 ± 29
sgRNA knockout: sgXBP1, 1000 nM	78.8 ± 3
sgRNA knockout: sgXBP1, 10000 nM	33.6 ± 7.6

C=CCc1cccc(/C=N/NC(=O)CN2CCN(Cc3ccccc3)CC2)c1O [PAC1]
Conditions	relative cell number
sgRNA knockout: sgATF3, 10 nM	99.3 ± 15
sgRNA knockout: sgATF3, 100 nM	98.1 ± 6.6
sgRNA knockout: sgATF3, 1000 nM	89 ± 17
sgRNA knockout: sgATF3, 10000 nM	31.4 ± 1.3
sgRNA knockout: sgATF4, 10 nM	111 ± 1.8
sgRNA knockout: sgATF4, 100 nM	101 ± 1.6
sgRNA knockout: sgATF4, 1000 nM	93.1 ± 24
sgRNA knockout: sgATF4, 10000 nM	32.8 ± 1.6
sgRNA knockout: sgATF6, 10 nM	105 ± 9.1
sgRNA knockout: sgATF6, 100 nM	75.2 ± 5.1
sgRNA knockout: sgATF6, 1000 nM	97.5 ± 4.6
sgRNA knockout: sgATF6, 10000 nM	32.9 ± 3.9
sgRNA knockout: sgATG7, 10 nM	102 ± 2.7
sgRNA knockout: sgATG7, 100 nM	98.8 ± 6.8
sgRNA knockout: sgATG7, 1000 nM	85.3 ± 9.6
sgRNA knockout: sgATG7, 10000 nM	35.6 ± 3.9
sgRNA knockout: sgERN1, 10 nM	94.6 ± 5.2
sgRNA knockout: sgERN1, 100 nM	85.4 ± 4.3
sgRNA knockout: sgERN1, 1000 nM	91.9 ± 2.7
sgRNA knockout: sgERN1, 10000 nM	36.1 ± 10
sgRNA knockout: sgHSF1, 10 nM	96.5 ± 11
sgRNA knockout: sgHSF1, 100 nM	77 ± 7.3
sgRNA knockout: sgHSF1, 1000 nM	72.1 ± 16
sgRNA knockout: sgHSF1, 10000 nM	30.9 ± 8.4
sgRNA knockout: sgHSF2, 10 nM	100 ± 4.3
sgRNA knockout: sgHSF2, 100 nM	94.6 ± 1.1
sgRNA knockout: sgHSF2, 1000 nM	93 ± 8
sgRNA knockout: sgHSF2, 10000 nM	30.9 ± 12
sgRNA knockout: sgKEAP1, 10 nM	101 ± 4.6
sgRNA knockout: sgKEAP1, 100 nM	87.3 ± 4.2
sgRNA knockout: sgKEAP1, 1000 nM	99.4 ± 7
sgRNA knockout: sgKEAP1, 10000 nM	23.9 ± 1.8
sgRNA knockout: sgNFE2L2, 10 nM	105 ± 4.4
sgRNA knockout: sgNFE2L2, 100 nM	103.3 ± 0.39
sgRNA knockout: sgNFE2L2, 1000 nM	86.2 ± 18
sgRNA knockout: sgNFE2L2, 10000 nM	29.17 ± 0.23
sgRNA knockout: sgSLC35F2, 10 nM	104 ± 3.1
sgRNA knockout: sgSLC35F2, 100 nM	94.19 ± 0.79
sgRNA knockout: sgSLC35F2, 1000 nM	93.8 ± 27
sgRNA knockout: sgSLC35F2, 10000 nM	30.2 ± 2
sgRNA knockout: sgXBP1, 10 nM	95 ± 6.8
sgRNA knockout: sgXBP1, 100 nM	102 ± 5.1
sgRNA knockout: sgXBP1, 1000 nM	91.6 ± 16
sgRNA knockout: sgXBP1, 10000 nM	30.9 ± 3.9
